The source of these data is publication PMC7699203.

Chains of the proteins cited; added tags and fusions are not shown.
UniProt Q9UM11: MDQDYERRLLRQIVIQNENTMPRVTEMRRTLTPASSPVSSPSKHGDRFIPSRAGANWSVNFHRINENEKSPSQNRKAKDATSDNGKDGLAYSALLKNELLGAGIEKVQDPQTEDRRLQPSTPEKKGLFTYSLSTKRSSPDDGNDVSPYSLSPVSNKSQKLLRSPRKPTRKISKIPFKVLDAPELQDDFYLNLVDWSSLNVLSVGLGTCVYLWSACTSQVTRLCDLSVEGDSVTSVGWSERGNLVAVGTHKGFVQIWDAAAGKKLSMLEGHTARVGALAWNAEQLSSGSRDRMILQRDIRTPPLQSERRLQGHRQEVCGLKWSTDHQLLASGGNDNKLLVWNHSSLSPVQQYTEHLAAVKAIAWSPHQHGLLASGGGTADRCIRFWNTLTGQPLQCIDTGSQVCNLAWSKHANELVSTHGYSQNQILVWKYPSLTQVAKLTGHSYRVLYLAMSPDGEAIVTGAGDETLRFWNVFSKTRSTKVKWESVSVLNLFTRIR

These are yes or no findings as the source states them, for the method shown. In cells and extracts the contact can be indirect. Some entries that bind do so weakly or less than the wild type. For some of these results: Sequences can lack the tags named with a protein.

Assay [1] deals with T1, Myc-tagged fumarylacetoacetate hydrolase (FAH) (UniProt P16930).
T1 sequence: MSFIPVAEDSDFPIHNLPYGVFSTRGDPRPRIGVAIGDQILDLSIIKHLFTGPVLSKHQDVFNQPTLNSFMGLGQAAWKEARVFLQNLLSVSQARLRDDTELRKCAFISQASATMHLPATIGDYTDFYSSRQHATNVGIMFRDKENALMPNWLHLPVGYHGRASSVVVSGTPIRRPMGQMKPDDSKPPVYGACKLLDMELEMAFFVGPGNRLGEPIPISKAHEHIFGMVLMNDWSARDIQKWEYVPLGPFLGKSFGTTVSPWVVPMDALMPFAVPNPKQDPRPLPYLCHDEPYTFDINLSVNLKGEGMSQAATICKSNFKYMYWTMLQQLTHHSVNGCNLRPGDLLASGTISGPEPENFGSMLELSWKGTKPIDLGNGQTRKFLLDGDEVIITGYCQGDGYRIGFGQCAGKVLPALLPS
The assay is described as follows: co-IP; HEK293 cells co-transfected with Myc-FAH and Flag-Cdh1, harvested after 48 h; lysis in 50 mM Tris-HCl pH 7.6, 150 mM NaCl, 1 mM EDTA, 1% Triton X-100, 1 mM PMSF; 2-3 mg lysate with anti-Myc or anti-Flag antibody at 4 °C overnight, then protein agarose beads; blotted with the other tag's antibody.

Assay [2] deals with T2, endogenous fumarylacetoacetate hydrolase (FAH) (human (endogenous in HHSteCs)) (UniProt P16930).
T2 sequence: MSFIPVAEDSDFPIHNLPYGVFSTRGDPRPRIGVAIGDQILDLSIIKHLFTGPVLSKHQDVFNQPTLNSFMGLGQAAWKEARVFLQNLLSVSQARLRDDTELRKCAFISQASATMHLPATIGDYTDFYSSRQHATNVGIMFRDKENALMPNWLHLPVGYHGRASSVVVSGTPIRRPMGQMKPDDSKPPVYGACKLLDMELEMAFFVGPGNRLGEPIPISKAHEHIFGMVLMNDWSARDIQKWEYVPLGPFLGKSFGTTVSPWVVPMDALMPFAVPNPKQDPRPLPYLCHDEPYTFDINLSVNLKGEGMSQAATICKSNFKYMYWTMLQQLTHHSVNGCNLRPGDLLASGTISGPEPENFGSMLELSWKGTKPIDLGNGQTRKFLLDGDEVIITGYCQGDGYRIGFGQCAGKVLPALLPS
In words: co-IP; endogenous proteins in HHSteCs treated with MG132 for 8 h before harvesting; about 5 mg lysate with anti-FAH or anti-Cdh1 antibody; blotted with FAH or Cdh1 antibodies.

In assay [3] the target is Flag-tagged Cdh1 (UniProt Q9UM11). In words: co-IP; HEK293 cells co-transfected with Myc-FAH and Flag-Cdh1, harvested after 48 h; lysis in 50 mM Tris-HCl pH 7.6, 150 mM NaCl, 1 mM EDTA, 1% Triton X-100, 1 mM PMSF; 2-3 mg lysate with anti-Myc or anti-Flag antibody at 4 °C overnight, then protein agarose beads; blotted with the other tag's antibody.
In assay [4] the target is endogenous Cdh1 (human (endogenous in HHSteCs)) (UniProt Q9UM11). The assay is described as follows: co-IP; endogenous proteins in HHSteCs treated with MG132 for 8 h before harvesting; about 5 mg lysate with anti-FAH or anti-Cdh1 antibody; blotted with FAH or Cdh1 antibodies.

“Flag-tagged Cdh1 (from UniProt Q9UM11 1-496)”: the binding entry in assay [1] is “binds”.
With “endogenous Cdh1 (from UniProt Q9UM11 1-496)”, the binding entry in assay [2] is listed as “binds”.

B1: Myc-tagged fumarylacetoacetate hydrolase (FAH) (enzyme, UniProt P16930 1-419)
chain: MSFIPVAEDSDFPIHNLPYGVFSTRGDPRPRIGVAIGDQILDLSIIKHLFTGPVLSKHQDVFNQPTLNSFMGLGQAAWKEARVFLQNLLSVSQARLRDDTELRKCAFISQASATMHLPATIGDYTDFYSSRQHATNVGIMFRDKENALMPNWLHLPVGYHGRASSVVVSGTPIRRPMGQMKPDDSKPPVYGACKLLDMELEMAFFVGPGNRLGEPIPISKAHEHIFGMVLMNDWSARDIQKWEYVPLGPFLGKSFGTTVSPWVVPMDALMPFAVPNPKQDPRPLPYLCHDEPYTFDINLSVNLKGEGMSQAATICKSNFKYMYWTMLQQLTHHSVNGCNLRPGDLLASGTISGPEPENFGSMLELSWKGTKPIDLGNGQTRKFLLDGDEVIITGYCQGDGYRIGFGQCAGKVLPALLPS
Consider B1, for which the binding result in assay [3] was “binds”.

B2: endogenous fumarylacetoacetate hydrolase (FAH) (enzyme, UniProt P16930 1-419)
chain: MSFIPVAEDSDFPIHNLPYGVFSTRGDPRPRIGVAIGDQILDLSIIKHLFTGPVLSKHQDVFNQPTLNSFMGLGQAAWKEARVFLQNLLSVSQARLRDDTELRKCAFISQASATMHLPATIGDYTDFYSSRQHATNVGIMFRDKENALMPNWLHLPVGYHGRASSVVVSGTPIRRPMGQMKPDDSKPPVYGACKLLDMELEMAFFVGPGNRLGEPIPISKAHEHIFGMVLMNDWSARDIQKWEYVPLGPFLGKSFGTTVSPWVVPMDALMPFAVPNPKQDPRPLPYLCHDEPYTFDINLSVNLKGEGMSQAATICKSNFKYMYWTMLQQLTHHSVNGCNLRPGDLLASGTISGPEPENFGSMLELSWKGTKPIDLGNGQTRKFLLDGDEVIITGYCQGDGYRIGFGQCAGKVLPALLPS
Consider B2, for which the binding result in assay [4] was “binds”.
